Results published in the supplement of paper PMC12067093, “Discovery and optimisation of a covalent ligand for TRIM25 and its application to targeted protein ubiquitination” (Chemical Science, 2025).
Some of the results follow.

The chains behind the UniProt entries cited, without tags or fusion partners. Where a name states a change or a piece, a line headed by the entry shows the natural chain unless it says otherwise.
UniProt Q13642: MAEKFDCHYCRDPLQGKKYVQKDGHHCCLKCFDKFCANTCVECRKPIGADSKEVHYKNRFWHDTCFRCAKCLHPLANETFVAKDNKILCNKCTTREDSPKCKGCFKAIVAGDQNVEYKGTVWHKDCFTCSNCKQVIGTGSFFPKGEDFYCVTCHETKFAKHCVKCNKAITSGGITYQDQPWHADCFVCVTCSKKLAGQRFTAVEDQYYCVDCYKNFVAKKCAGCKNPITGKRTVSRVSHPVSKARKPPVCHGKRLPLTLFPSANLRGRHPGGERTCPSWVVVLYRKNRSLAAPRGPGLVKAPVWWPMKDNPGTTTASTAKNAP
UniProt O75369, whole entry, looked up: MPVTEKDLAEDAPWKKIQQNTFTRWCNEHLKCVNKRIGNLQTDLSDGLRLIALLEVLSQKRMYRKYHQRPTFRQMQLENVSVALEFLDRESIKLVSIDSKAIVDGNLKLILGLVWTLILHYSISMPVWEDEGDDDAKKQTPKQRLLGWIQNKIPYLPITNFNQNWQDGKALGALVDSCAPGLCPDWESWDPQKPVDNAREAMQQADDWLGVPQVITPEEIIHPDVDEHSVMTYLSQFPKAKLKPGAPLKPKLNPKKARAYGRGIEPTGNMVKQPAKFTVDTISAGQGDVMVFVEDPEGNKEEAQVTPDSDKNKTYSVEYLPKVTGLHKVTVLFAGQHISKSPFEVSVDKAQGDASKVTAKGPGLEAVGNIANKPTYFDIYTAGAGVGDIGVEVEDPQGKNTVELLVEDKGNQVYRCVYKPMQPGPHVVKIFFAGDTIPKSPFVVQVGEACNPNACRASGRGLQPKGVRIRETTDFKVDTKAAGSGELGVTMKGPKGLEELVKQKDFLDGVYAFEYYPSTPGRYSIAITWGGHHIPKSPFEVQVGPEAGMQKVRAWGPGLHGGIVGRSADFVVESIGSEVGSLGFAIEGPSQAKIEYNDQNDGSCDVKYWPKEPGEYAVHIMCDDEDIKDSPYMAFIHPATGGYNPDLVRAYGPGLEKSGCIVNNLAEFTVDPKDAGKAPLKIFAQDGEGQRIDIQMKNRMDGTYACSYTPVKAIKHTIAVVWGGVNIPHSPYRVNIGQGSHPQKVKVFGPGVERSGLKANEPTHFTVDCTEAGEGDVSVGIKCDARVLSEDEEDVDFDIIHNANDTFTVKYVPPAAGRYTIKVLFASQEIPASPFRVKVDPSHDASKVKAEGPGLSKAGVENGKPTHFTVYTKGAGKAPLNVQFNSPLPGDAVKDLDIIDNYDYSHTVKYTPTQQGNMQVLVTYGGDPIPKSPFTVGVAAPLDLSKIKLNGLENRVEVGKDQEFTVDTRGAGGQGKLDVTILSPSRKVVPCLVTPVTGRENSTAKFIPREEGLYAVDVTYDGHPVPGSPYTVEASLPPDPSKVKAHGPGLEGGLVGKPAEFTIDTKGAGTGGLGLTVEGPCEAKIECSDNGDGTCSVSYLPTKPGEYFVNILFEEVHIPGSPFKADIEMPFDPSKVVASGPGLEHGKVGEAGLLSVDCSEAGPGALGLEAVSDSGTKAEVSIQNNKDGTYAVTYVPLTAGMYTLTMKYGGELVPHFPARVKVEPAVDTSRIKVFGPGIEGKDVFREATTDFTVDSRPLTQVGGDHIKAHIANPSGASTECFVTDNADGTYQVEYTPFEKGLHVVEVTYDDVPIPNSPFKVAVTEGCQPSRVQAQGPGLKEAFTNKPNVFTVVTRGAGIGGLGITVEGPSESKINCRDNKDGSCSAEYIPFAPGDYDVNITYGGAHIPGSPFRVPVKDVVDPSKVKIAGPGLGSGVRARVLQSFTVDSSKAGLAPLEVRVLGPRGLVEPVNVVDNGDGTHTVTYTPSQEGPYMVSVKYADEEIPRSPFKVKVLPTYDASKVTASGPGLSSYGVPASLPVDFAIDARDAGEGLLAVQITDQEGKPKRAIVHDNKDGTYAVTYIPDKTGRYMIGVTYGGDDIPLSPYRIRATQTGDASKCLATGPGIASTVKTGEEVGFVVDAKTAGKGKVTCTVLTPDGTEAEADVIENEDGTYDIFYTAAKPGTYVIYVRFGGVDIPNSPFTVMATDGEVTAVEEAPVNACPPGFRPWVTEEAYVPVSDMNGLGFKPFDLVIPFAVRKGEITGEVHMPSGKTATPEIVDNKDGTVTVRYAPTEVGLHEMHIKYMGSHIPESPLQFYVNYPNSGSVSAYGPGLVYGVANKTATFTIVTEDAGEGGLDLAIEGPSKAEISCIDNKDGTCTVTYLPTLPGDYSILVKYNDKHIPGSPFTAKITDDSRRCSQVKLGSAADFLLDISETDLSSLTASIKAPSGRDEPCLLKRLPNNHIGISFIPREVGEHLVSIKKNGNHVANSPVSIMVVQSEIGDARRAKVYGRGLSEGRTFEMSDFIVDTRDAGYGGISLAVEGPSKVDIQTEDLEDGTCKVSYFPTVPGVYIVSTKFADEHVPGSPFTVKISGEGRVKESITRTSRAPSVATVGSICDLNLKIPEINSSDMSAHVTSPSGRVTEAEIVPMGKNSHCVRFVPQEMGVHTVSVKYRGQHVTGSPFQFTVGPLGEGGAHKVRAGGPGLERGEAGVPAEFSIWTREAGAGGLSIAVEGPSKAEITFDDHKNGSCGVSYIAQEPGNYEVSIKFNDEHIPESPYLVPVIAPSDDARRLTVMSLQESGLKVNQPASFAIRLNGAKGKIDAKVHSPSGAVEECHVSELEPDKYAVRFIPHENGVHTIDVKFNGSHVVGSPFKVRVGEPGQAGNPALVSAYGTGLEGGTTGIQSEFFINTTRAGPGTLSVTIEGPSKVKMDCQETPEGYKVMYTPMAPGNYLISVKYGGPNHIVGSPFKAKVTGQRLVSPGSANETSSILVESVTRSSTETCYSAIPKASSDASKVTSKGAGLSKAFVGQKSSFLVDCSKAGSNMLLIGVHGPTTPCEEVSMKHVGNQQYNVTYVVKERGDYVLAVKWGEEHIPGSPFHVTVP
UniProt O94915: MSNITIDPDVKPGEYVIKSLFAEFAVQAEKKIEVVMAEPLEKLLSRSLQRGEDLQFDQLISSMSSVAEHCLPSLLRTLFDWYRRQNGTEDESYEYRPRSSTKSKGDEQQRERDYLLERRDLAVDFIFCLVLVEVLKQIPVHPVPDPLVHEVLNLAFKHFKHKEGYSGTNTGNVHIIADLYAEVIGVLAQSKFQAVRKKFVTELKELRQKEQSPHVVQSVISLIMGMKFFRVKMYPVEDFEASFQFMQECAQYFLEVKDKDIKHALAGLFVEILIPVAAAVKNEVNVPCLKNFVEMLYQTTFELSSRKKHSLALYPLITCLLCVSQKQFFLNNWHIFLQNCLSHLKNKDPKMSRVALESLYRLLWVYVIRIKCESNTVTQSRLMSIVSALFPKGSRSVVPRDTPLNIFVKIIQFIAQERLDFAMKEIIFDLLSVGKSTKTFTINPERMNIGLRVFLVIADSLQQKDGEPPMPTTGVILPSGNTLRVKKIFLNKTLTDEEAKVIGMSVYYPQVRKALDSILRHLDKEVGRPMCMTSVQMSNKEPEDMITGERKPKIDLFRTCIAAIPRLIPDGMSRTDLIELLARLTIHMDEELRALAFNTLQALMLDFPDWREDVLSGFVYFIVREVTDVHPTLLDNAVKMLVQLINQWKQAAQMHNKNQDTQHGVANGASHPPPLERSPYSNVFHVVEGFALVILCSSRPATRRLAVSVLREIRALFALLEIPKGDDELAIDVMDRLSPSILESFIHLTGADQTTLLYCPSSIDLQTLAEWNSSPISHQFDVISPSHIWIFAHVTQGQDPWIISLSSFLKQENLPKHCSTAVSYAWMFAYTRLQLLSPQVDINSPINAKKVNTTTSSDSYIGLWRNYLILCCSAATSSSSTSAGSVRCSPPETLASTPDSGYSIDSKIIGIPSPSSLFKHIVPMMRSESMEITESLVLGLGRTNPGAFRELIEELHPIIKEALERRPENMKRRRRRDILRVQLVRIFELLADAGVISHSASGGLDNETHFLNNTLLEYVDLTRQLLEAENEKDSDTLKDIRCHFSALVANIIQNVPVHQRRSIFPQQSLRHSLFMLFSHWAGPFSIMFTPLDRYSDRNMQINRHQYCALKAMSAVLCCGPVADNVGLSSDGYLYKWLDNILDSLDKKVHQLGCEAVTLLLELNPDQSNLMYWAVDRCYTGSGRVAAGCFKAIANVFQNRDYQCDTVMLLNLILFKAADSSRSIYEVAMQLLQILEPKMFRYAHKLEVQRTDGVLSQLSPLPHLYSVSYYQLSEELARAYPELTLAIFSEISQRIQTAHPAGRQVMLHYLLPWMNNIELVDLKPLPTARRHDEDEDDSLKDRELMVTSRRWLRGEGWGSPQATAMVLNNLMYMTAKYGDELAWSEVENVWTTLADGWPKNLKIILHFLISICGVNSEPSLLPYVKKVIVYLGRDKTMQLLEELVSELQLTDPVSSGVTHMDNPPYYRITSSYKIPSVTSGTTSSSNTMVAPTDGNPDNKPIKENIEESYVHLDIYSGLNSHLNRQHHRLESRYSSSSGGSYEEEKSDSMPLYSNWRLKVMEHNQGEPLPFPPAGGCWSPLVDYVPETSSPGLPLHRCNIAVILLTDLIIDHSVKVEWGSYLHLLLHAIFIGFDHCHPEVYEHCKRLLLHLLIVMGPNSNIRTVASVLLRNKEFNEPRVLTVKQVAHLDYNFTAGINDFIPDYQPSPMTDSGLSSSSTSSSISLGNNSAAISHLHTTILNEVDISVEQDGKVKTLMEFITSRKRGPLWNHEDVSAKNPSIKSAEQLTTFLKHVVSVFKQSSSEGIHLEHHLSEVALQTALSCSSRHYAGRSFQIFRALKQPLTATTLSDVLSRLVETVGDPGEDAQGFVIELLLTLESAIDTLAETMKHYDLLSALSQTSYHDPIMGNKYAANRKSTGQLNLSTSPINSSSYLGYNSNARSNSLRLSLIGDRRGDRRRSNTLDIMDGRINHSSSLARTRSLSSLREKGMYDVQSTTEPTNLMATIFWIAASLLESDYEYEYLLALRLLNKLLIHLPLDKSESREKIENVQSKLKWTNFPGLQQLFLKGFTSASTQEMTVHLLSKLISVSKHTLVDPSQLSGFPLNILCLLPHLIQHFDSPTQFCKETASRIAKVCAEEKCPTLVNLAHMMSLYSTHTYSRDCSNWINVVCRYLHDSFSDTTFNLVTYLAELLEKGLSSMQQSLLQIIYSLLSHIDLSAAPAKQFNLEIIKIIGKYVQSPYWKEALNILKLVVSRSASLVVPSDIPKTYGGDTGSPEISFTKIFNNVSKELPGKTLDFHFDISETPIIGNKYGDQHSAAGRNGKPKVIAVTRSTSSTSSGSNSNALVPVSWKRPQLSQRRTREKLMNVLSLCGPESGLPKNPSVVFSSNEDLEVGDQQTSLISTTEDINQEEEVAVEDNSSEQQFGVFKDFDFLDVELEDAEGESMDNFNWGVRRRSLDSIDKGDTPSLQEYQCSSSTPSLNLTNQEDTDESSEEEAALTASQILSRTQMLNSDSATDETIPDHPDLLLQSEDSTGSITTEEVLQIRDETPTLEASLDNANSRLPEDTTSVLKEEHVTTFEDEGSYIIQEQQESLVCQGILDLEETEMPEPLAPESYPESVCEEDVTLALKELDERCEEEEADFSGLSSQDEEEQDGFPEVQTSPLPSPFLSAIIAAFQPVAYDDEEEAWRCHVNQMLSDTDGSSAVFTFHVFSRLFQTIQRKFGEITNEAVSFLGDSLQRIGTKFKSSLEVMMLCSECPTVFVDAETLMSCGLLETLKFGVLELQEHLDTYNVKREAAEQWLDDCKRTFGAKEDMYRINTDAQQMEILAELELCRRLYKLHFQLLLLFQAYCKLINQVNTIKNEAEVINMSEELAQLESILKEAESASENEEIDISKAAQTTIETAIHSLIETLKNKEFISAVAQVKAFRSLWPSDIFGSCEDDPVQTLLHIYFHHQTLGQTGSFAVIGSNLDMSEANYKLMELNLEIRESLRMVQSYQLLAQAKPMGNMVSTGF
UniProt P62942, whole entry, looked up: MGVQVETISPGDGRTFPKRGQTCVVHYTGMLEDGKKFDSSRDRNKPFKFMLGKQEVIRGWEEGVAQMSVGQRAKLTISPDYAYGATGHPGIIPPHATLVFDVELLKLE
UniProt P11413, whole entry, looked up: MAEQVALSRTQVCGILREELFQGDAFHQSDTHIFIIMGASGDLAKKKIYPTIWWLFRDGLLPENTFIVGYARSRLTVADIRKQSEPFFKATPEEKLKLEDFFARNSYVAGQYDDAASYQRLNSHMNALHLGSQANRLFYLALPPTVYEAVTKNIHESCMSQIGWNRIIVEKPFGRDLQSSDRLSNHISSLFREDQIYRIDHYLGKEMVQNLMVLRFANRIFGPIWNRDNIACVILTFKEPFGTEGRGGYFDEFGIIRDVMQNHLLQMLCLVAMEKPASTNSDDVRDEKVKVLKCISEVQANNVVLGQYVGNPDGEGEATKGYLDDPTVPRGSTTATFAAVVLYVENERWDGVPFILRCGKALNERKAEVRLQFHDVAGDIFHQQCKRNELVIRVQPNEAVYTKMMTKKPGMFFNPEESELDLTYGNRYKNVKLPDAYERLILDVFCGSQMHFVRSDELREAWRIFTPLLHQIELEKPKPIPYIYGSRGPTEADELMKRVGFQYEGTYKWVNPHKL

Compound: Cc1cc(ccc1-c1ccccc1)C(=O)N1CCCN(CC1)C(=O)CCl [compound 10]
Experiment: probe-labelled cysteine peptide fold change vs DMSO (competition) (log2 fold change); higher = less target engagement (more negative = stronger competition)
Conditions: THP-1, incubation time: 4 h
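Note: competitive profiling in live THP-1 cells: cysteine peptides tagged with an iodoacetamide desthiobiotin (IA-DTB) probe, intensity after compound treatment relative to DMSO-treated cells.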

Target: FTO_Q9C0B1_136_HTEAEIAAACETFLK (UniProt Q9C0B1)
- probe-labelled cysteine peptide fold change (10 µM): 0.103
- probe-labelled cysteine peptide fold change (50 µM): 0.222

Target: FLAD1_Q8NFF5_338_LTLDSEEEGPLEECLAYLTAR (UniProt Q8NFF5)
- probe-labelled cysteine peptide fold change (10 µM): -0.0485
- probe-labelled cysteine peptide fold change (50 µM): 0.177

Target: GABPA_Q06546_388_YYYDGDMICK (UniProt Q06546)
- probe-labelled cysteine peptide fold change (10 µM): -0.0643
- probe-labelled cysteine peptide fold change (50 µM): -0.0421

Target: FLII_Q13045_232_TQSNLPTSLEGLSNLADVDLSCNDLTR (UniProt Q13045)
- probe-labelled cysteine peptide fold change (10 µM): 0.106
- probe-labelled cysteine peptide fold change (50 µM): -0.107

Target: GADD45GIP1_Q8TAE8_124_EQHIAECMAK (UniProt Q8TAE8)
- probe-labelled cysteine peptide fold change (10 µM): 0.308
- probe-labelled cysteine peptide fold change (50 µM): 0.47

Target: FHL1_Q13642_65_FWHDTCFR (UniProt Q13642)
- probe-labelled cysteine peptide fold change (10 µM): 0.174
- probe-labelled cysteine peptide fold change (50 µM): -0.00101

Target: FLNB_O75369_769_ANEPTHFTVDCTEAGEGDVSVGIK (UniProt O75369)
- probe-labelled cysteine peptide fold change (10 µM): -0.0149
- probe-labelled cysteine peptide fold change (50 µM): 0.114

Target: FXR1_P51114_211_HLECTK (UniProt P51114)
- probe-labelled cysteine peptide fold change (10 µM): -0.141
- probe-labelled cysteine peptide fold change (50 µM): -0.767

Target: FRYL_O94915_1042_CHFSALVANIIQNVPVHQR (UniProt O94915)
- probe-labelled cysteine peptide fold change (10 µM): 0.125
- probe-labelled cysteine peptide fold change (50 µM): -0.0111

Target: FLII_Q13045_337_LTNLEEFMAANNNLELVPESLCR (UniProt Q13045)
- probe-labelled cysteine peptide fold change (10 µM): -0.447
- probe-labelled cysteine peptide fold change (50 µM): -0.421

Target: FKBP1A_P62942_23_RGQTCVVHYTGMLEDGK (UniProt P62942)
- probe-labelled cysteine peptide fold change (10 µM): 0.165
- probe-labelled cysteine peptide fold change (50 µM): -0.0845

Target: FLII_Q13045_933_LPEEEFGHFYTQDCYVFLCR (UniProt Q13045)
- probe-labelled cysteine peptide fold change (10 µM): 0.172
- probe-labelled cysteine peptide fold change (50 µM): 0.145

Target: FTSJ1_Q9UET6_238_IIVPFVTCGDLSSYDSDR (UniProt Q9UET6)
- probe-labelled cysteine peptide fold change (10 µM): -0.00709
- probe-labelled cysteine peptide fold change (50 µM): 0.281

Target: FLNB_O75369_2154_NSHCVR (UniProt O75369)
- probe-labelled cysteine peptide fold change (10 µM): -0.434
- probe-labelled cysteine peptide fold change (50 µM): 0.73

Target: GALK2_Q01415_303_CLGISLEELR (UniProt Q01415)
- probe-labelled cysteine peptide fold change (10 µM): 0.307
- probe-labelled cysteine peptide fold change (50 µM): -0.31

Target: FLNB_O75369_2501_SSTETCYSAIPK (UniProt O75369)
- probe-labelled cysteine peptide fold change (10 µM): -0.187
- probe-labelled cysteine peptide fold change (50 µM): -0.4

Target: FTO_Q9C0B1_472_TLPADQKPECRPYWEK (UniProt Q9C0B1)
- probe-labelled cysteine peptide fold change (10 µM): -0.435
- probe-labelled cysteine peptide fold change (50 µM): -0.236

Target: FTL_P02792_127_TDPHLCDFLETHFLDEEVK (UniProt P02792)
- probe-labelled cysteine peptide fold change (10 µM): 0.41
- probe-labelled cysteine peptide fold change (50 µM): 0.216

Target: G6PD_P11413_269_DVMQNHLLQMLCLVAMEK (UniProt P11413)
- probe-labelled cysteine peptide fold change (10 µM): 0.335
- probe-labelled cysteine peptide fold change (50 µM): 0.461

Target: GAK_O14976_472_VSECGWAAR (UniProt O14976)
- probe-labelled cysteine peptide fold change (10 µM): -0.232
- probe-labelled cysteine peptide fold change (50 µM): -0.0933

Target: FHL1_Q13642_7+10_FDCHYCR (UniProt Q13642)
- probe-labelled cysteine peptide fold change (10 µM): -0.0387
- probe-labelled cysteine peptide fold change (50 µM): -0.34

Target: FLI1_Q01543_83_ESPVDCSVSK (UniProt Q01543)
- probe-labelled cysteine peptide fold change (10 µM): -0.136
- probe-labelled cysteine peptide fold change (50 µM): 0.244

Target: FLII_Q13045_119_NSGVPDDIFKLDDLSVLDLSHNQLTECPR (UniProt Q13045)
- probe-labelled cysteine peptide fold change (10 µM): -0.0155
- probe-labelled cysteine peptide fold change (50 µM): -0.0136

Target: FLNA_P21333_2378_VHSPSGALEECYVTEIDQDK (UniProt P21333)
- probe-labelled cysteine peptide fold change (10 µM): -0.759
- probe-labelled cysteine peptide fold change (50 µM): -0.549

Target: FOXP1_Q9H334_317_WPGCEAVCEDFQSFLK (UniProt Q9H334)
- probe-labelled cysteine peptide fold change (10 µM): -0.0195
- probe-labelled cysteine peptide fold change (50 µM): 0.436

Target: FLII_Q13045_982_EGEEATAEAEEKQPEEDFQCIVYFWQGR (UniProt Q13045)
- probe-labelled cysteine peptide fold change (10 µM): 0.194
- probe-labelled cysteine peptide fold change (50 µM): 0.216

Target: FLT3_P36888_35_CVLINHK (UniProt P36888)
- probe-labelled cysteine peptide fold change (10 µM): -0.323
- probe-labelled cysteine peptide fold change (50 µM): 0.0612

Target: FLII_Q13045_1067_TNGSALCTR (UniProt Q13045)
- probe-labelled cysteine peptide fold change (10 µM): 0.164
- probe-labelled cysteine peptide fold change (50 µM): 0.0495

Target: FKBP8_Q14318_274_CLNNLAASQLK (UniProt Q14318)
- probe-labelled cysteine peptide fold change (10 µM): 0.0653
- probe-labelled cysteine peptide fold change (50 µM): -0.0462

Target: FLII_Q13045_1257+1265_CFHAWSAFCK (UniProt Q13045)
- probe-labelled cysteine peptide fold change (10 µM): -0.0916
- probe-labelled cysteine peptide fold change (50 µM): -0.374

Target: FHL1_Q13642_150+153_GEDFYCVTCHETK (UniProt Q13642)
- probe-labelled cysteine peptide fold change (10 µM): -0.0207
- probe-labelled cysteine peptide fold change (50 µM): -0.408

Target: FHL1_Q13642_43_FCANTCVECR (UniProt Q13642)
- probe-labelled cysteine peptide fold change (10 µM): 0.103
- probe-labelled cysteine peptide fold change (50 µM): -0.023

Target: FKBP15_Q5T1M5_809_CEHLLASAK (UniProt Q5T1M5)
- probe-labelled cysteine peptide fold change (10 µM): -0.189
- probe-labelled cysteine peptide fold change (50 µM): -0.135

Target: FTO_Q9C0B1_294+308_ISWDIETPGLAIPLHQGDCYFMLDDLNATHQHCVLAGSQPR (UniProt Q9C0B1)
- probe-labelled cysteine peptide fold change (10 µM): -0.278
- probe-labelled cysteine peptide fold change (50 µM): -0.585

Target: FOXK1_P85037_439_SGGLQTPECLSR (UniProt P85037)
- probe-labelled cysteine peptide fold change (10 µM): -0.394
- probe-labelled cysteine peptide fold change (50 µM): -0.726

Target: FSCN1_Q16658_61_KQIWTLEQPPDEAGSAAVCLR (UniProt Q16658)
- probe-labelled cysteine peptide fold change (10 µM): -0.0697
- probe-labelled cysteine peptide fold change (50 µM): -0.547

Target: G6PC3_Q9BUM1_269_DSGAALGLGIALHSPCYAQVR (UniProt Q9BUM1)
- probe-labelled cysteine peptide fold change (10 µM): -0.15
- probe-labelled cysteine peptide fold change (50 µM): -0.581

Target: FLII_Q13045_576_NYLGAECR (UniProt Q13045)
- probe-labelled cysteine peptide fold change (10 µM): -0.0189
- probe-labelled cysteine peptide fold change (50 µM): 0.0603

Target: FRYL_O94915_2160_DCSNWINVVCR (UniProt O94915)
- probe-labelled cysteine peptide fold change (10 µM): -0.179
- probe-labelled cysteine peptide fold change (50 µM): 0.246
